Results on 28 compounds are retold here after the odorant receptor screen of Mainland et al. (2015).

“And” between values parts separate entries of the source, which are not always exact repeats. Equal values may be shown once. The list shows a part of the results. Each value is one well over the wells without odorant, computed here; the data are noisy.

One experiment has as its system OR10A4 R262Q clone 1538. Briefly: odorant receptor activation (CRE luciferase / Renilla) (fold of no-odor wells); higher = more activation. Conditions: 100 µM.
As for `CC12CCC(C1)C(C)(C)C2=O` (stereo not drawn) [fenchone], the odorant receptor activation came out at 1.52.

On to `CCCCCCCC=O` [octyl aldehyde], for which the odorant receptor activation amounted to 1.08.

On to `CC(C)CCC(=O)O` [4-methylvaleric acid], for which the odorant receptor activation was 0.932.

For the compound `C=CCc1ccc(OC)c(OC)c1` [eugenol methyl ether], the odorant receptor activation amounted to 1.65.

In turn, `O=CCc1ccccc1` [phenyl acetaldehyde] gave an odorant receptor activation of 1.34.

The compound `CC1CCC(C(C)C)C(O)C1` (single isomer, unassigned; (+)) [(+)-menthol] gave an odorant receptor activation of 1.17.

In turn, `C=CCc1ccc(OC(C)=O)c(OC)c1` [eugenol acetate] displayed an odorant receptor activation of 1.62.

The next experiment concerns OR10A5 clone 1723. The experiment is described as above. To be noted: 100 µM.
The compound `CC1CCC(C(C)C)C(O)C1` (single isomer, unassigned; (-)) [(-)-menthol] had an odorant receptor activation of 0.759.

Consider `C=CCSCC=C` [diallyl sulfide], for which the odorant receptor activation is 0.722.

Compound `CC(C)=CCCC(C)=CC=O` [citral] returned an odorant receptor activation of 1.15.

Compound `COc1cc(C)ccc1O` [2-methoxy-4-methylphenol] had an odorant receptor activation of 0.85.

The compound `CC(=O)OC(C)(C)C1CC=C(C)CC1` (stereo not drawn) [terpinyl acetate] came in with an odorant receptor activation of 1.36.

Take `CCCCCCCCC=O` [nonyl aldehyde]: the odorant receptor activation was determined as 0.833.

Compound `O=C1CCCCCCCCCCCC(=O)OCCO1` [ethylene brassylate] showed an odorant receptor activation of 0.933.

`CCCCCCCCOC(C)=O` [octyl acetate] had an odorant receptor activation of 0.726.

With `c1ccc(Oc2ccccc2)cc1` [diphenyl ether], the odorant receptor activation was found to be 0.708.

`CCCCCCCC=CC=O` [2-decenal] showed an odorant receptor activation of 0.972.

Compound `CC(C)C(=O)O` [isobutyric acid] had an odorant receptor activation of 0.864.

In turn, `CCCCCCOC(=O)CCC` [hexyl butyrate] had an odorant receptor activation of 0.941.

The compound `C=CCc1ccc(O)c(OC)c1` [eugenol] came in with an odorant receptor activation of 0.85.

Compound `CC(=O)OC1CC2CCC1(C)C2(C)C` (stereo not drawn) [isobornyl acetate] registered an odorant receptor activation of 1.04.

Take `CC(C)C=O` [isobutyraldehyde]: the odorant receptor activation amounted to 0.908.

Compound `CCCCCCCCCCC=O` [undecanal] registered an odorant receptor activation of 1.12.

For the compound `CC1=CCC(C(C)(C)O)CC1` (stereo not drawn) [terpineol], the odorant receptor activation is 1.65.

In turn, `COC(=O)c1ccccc1O` [methyl salicylate] displayed an odorant receptor activation of 0.811.

As for `C=C(C)C1CC=C(C)C(=O)C1` (stereo not drawn) [r-carvone], the odorant receptor activation was found to be 0.773.

Compound `CCCCO` [1-butanol] displayed an odorant receptor activation of 0.899.

Compound `CCC1(O)C2(C)CCC(C2)C1(C)C` (stereo not drawn) [2-ethylfenchol] showed an odorant receptor activation of 0.983.

`CC12CCC(C1)C(C)(C)C2=O` (stereo not drawn) [fenchone] had an odorant receptor activation of 0.803.

In turn, `CCCCCCCC=O` [octyl aldehyde] registered an odorant receptor activation of 0.831.

The compound `CC(C)CCC(=O)O` [4-methylvaleric acid] yielded an odorant receptor activation of 0.785.

On to `C=CCc1ccc(OC)c(OC)c1` [eugenol methyl ether], for which the odorant receptor activation turned out to be 0.965.

`O=CCc1ccccc1` [phenyl acetaldehyde] had an odorant receptor activation of 2.04.

For the compound `CC1CCC(C(C)C)C(O)C1` (single isomer, unassigned; (+)) [(+)-menthol], the odorant receptor activation came out at 0.691.

`C=CCc1ccc(OC(C)=O)c(OC)c1` [eugenol acetate]: the odorant receptor activation worked out at 2.03.

The next experiment has as its system OR10A6 clone 1219. The experiment is described as above. To be noted: 100 µM.
`CC1CCC(C(C)C)C(O)C1` (single isomer, unassigned; (-)) [(-)-menthol] displayed an odorant receptor activation of 0.801.

Turning to `C=CCSCC=C` [diallyl sulfide], the odorant receptor activation stood at 1.33.

`CC(C)=CCCC(C)=CC=O` [citral] showed an odorant receptor activation of 1.12.

Regarding `COc1cc(C)ccc1O` [2-methoxy-4-methylphenol], the odorant receptor activation was found to be 0.75.

With `CC(=O)OC(C)(C)C1CC=C(C)CC1` (stereo not drawn) [terpinyl acetate], the odorant receptor activation is 1.39.

`CCCCCCCCC=O` [nonyl aldehyde] had an odorant receptor activation of 0.974.

For the compound `O=C1CCCCCCCCCCCC(=O)OCCO1` [ethylene brassylate], the odorant receptor activation was found to be 1.89.

The compound `CCCCCCCCOC(C)=O` [octyl acetate] displayed an odorant receptor activation of 1.01.

In turn, `c1ccc(Oc2ccccc2)cc1` [diphenyl ether] gave an odorant receptor activation of 1.05.

In turn, `CCCCCCCC=CC=O` [2-decenal] displayed an odorant receptor activation of 0.569.

`CC(C)C(=O)O` [isobutyric acid] returned an odorant receptor activation of 0.964.

Compound `CCCCCCOC(=O)CCC` [hexyl butyrate] yielded an odorant receptor activation of 0.884.

Regarding `C=CCc1ccc(O)c(OC)c1` [eugenol], the odorant receptor activation was 3.15 and 1.7.

On to `CC(=O)OC1CC2CCC1(C)C2(C)C` (stereo not drawn) [isobornyl acetate], for which the odorant receptor activation came out at 0.935.

On to `CC(C)C=O` [isobutyraldehyde], for which the odorant receptor activation turned out to be 1.03.

On to `CCCCCCCCCCC=O` [undecanal], for which the odorant receptor activation came to 1.

As to `CC1=CCC(C(C)(C)O)CC1` (stereo not drawn) [terpineol], the odorant receptor activation is 1.06.

In the case of `COC(=O)c1ccccc1O` [methyl salicylate], the odorant receptor activation was 1.04.

The compound `C=C(C)C1CC=C(C)C(=O)C1` (stereo not drawn) [r-carvone] returned an odorant receptor activation of 0.982.

Consider `CCCCO` [1-butanol], for which the odorant receptor activation turned out to be 0.751.

The compound `CCC1(O)C2(C)CCC(C2)C1(C)C` (stereo not drawn) [2-ethylfenchol] registered an odorant receptor activation of 0.613.

Compound `CC12CCC(C1)C(C)(C)C2=O` (stereo not drawn) [fenchone] had an odorant receptor activation of 0.979.

The compound `CCCCCCCC=O` [octyl aldehyde] gave an odorant receptor activation of 1.14.

The compound `CC(C)CCC(=O)O` [4-methylvaleric acid] showed an odorant receptor activation of 0.753.

As to `C=CCc1ccc(OC)c(OC)c1` [eugenol methyl ether], the odorant receptor activation came to 1.67.

Compound `O=CCc1ccccc1` [phenyl acetaldehyde] showed an odorant receptor activation of 1.05.

With `CC1CCC(C(C)C)C(O)C1` (single isomer, unassigned; (+)) [(+)-menthol], the odorant receptor activation stood at 0.787.

For `C=CCc1ccc(OC(C)=O)c(OC)c1` [eugenol acetate], the odorant receptor activation was found to be 2.01.
